# At least one compound was matched to its structure with a doubt left.
# What was measured:
# [1] = system: PKAc in living C9H6 cells; experiment: Monitoring of kinase activity in living cells loaded with ARC-1139; type: cell-based; settings: Forskolin 25 μM; ARC-1139 10 μM loading; em 675 nm
# Protocol: CHO, C9H6 and HEK cells were cultured in F12 Nutrient Mixture supplemented with 10% fetal bovine serum, 2 mM L-glutamine, 100 U/ml penicillin and 100 μg/ml streptomycin at 37° C. in humidified atmosphere containing 5% CO2. In case of C9H6 cells, 300 μg/ml of Zeocine™ and 800 μg/ml of Geneticin® were additionally introduced to the nutrient mixture. Cells were seeded to 96-well plates (for plate reader experiments) and grown to 60%-80% confluency. The medium was replaced with fresh serum-free medium containing the luminescent probe ARC-1139 (10 μM) and incubated for 1 hour at 37° C. Subsequently, the cells were washed three times with PBS and analyzed on a PheraStar platereader with TRF optic modules [ex. 337(50) nm, em. 675(50) and 620(20) nm] using the time-resolved fluorescence measurement mode. Forskolin (final concentration of 25 μM) and H89 (final concentration of 100 μM) were added to the cells during the measurement (after 3 min and 7 min from the start of data acquisition, respectively)
# [2] = system: PKA in CHO cells stably over-expressing PKAc; experiment: Cellular activation of PKA via lysate analysis with ARC-1139; type: cell-based; settings: Forskolin 0-100 μM, 10 min; ARC-1139 25 nM in lysate
structure (smiles),measurement,setting,value
C=C[C@@]1(C)CC(=O)[C@]2(O)[C@@]3(C)[C@@H](O)CCC(C)(C)[C@@H]3[C@H](O)[C@H](OC(C)=O)[C@@]2(C)O1 [Forskolin],luminescence from live cells loaded with ARC-1139,[1],up to two fold increase
same,luminescence intensity of cell lysate,[2],significantly increased
